PubChem BioAssay AID1347131 (National Center for Advancing Translational Sciences (NCATS), 2019)
Hit rate of the full screen: of about 410,000 compounds, about 2,000 (0.49%) were called active. The shares of active, inactive and inconclusive entries below differ from those in the screen. Calls come from the whole dose curve; tested in HEK293 reporter line. Potencies beside an inconclusive call are fits to weak or partial responses and may not hold up.

Assay: qHTS Assay for Foot and Mouth Disease Virus Antivirals: Primary Screen against the MLPCN compound library; note: nearly all actives have a fitted effect of over 55% in size
Conditions: FMDV antiviral cell-based qHTS; activity, negative = inhibition: at 57.9 µM (top of the series)
Potency is the fitted concentration of half-maximal effect.

SMILES	Potency	activity, negative = inhibition
COC1CCC(OC2CC(C3(C)CCC4(CC(O)C(C)C(C(C)/C=C(\C)C(=O)C(C)CC(C)C(=O)O)O4)O3)OC3(OC(C4OC(O)(CO)C(C)CC4C)CC3C)C2C)OC1C (stereo unspecified)	inconclusive: 17.8 µM [inhibitor, partial curve, poor fit]	
COC(=O)c1cccc(NC(=O)CSc2nc3cccnc3n2C)c1	inconclusive: 15.8 µM [inhibitor, partial curve, poor fit]	
O=C1CN(C(=O)CNCc2ccccc2)c2ccccc2N1	inconclusive: 3.98 µM [inhibitor, full curve]	
COC(=O)C1=C(C)NC(C)=C(C(=O)OC)C1C(=O)OCC(=O)NC1CCCCC1C (stereo unspecified)	inconclusive: 4.47 µM [inhibitor, full curve]	
Cc1cccc(NC(=O)/C=C/c2ccc3c(c2)OCO3)n1	inconclusive: 17.8 µM [inhibitor, single point]	
O=C(O)C1C2C=CC(C2)C1C(=O)Nc1ccc2c(c1)OCCO2 (stereo unspecified)		inactive: -31.9%
NNC(=O)c1cccc(COc2ccc3c(c2)CCC3)c1	inconclusive: 12.6 µM [inhibitor, partial curve, poor fit]	
CCOc1ccc(C(=O)Nc2ccccc2C(=O)O)cc1	inconclusive: 12.6 µM [inhibitor, single point]	
CCCCc1c(-c2ccc(F)cc2)ncn1CCc1ccccc1OC	inconclusive: 25.1 µM [inhibitor, partial curve, poor fit]	
CCc1nnc(SCC(=O)Nc2ccc(N3CCOCC3)cc2)o1	inconclusive: 0.631 µM [inhibitor, partial curve, poor fit]	
O=C(CCCOc1ccc(Cl)cc1)NCC1CCCO1 (stereo unspecified)		inactive: -30.2%
CS(=O)(=O)c1ccc2nc(NC(=O)C3CC(=O)N(c4ccccc4)C3)sc2c1 (stereo unspecified)	inconclusive: 11.2 µM [inhibitor, partial curve, poor fit]	
O=C(N/N=C/c1ccc(O)c([N+](=O)[O-])c1)C1CC1(c1ccccc1)c1ccccc1 (stereo unspecified)	inconclusive: 35.5 µM [inhibitor, partial curve, poor fit]	
COc1ccc(C(=O)N(Cc2ccco2)Cc2cc3cc(C)ccc3[nH]c2=O)cc1OC	inconclusive: 14.1 µM [inhibitor, partial curve]	
CCN(CC)c1ccc(C(=O)NNC(=O)C2CCN(c3ncnc4sc(C)c(C)c34)CC2)cc1	inconclusive: 11.2 µM [inhibitor, partial curve, poor fit]	
c1ccc2c(CCNc3ncnc4nc[nH]c34)cccc2c1	inconclusive: 31.6 µM [inhibitor, partial curve, poor fit]	
CCc1ccc(Nc2nnc(SCC(=O)Nc3cccc(S(=O)(=O)NC4=NCCCCC4)c3)s2)cc1	inconclusive: 39.8 µM [inhibitor, single point]	
COc1ccc(-c2c[n+]3c4n2CCCCC4=C(c2ccccc2)C3)cc1	inconclusive: 22.4 µM [inhibitor, partial curve, poor fit]	

2 of the compounds above, as comma-separated lines:
SMILES,Potency,"activity, negative = inhibition"
COC1CCC(OC2CC(C3(C)CCC4(CC(O)C(C)C(C(C)/C=C(\C)C(=O)C(C)CC(C)C(=O)O)O4)O3)OC3(OC(C4OC(O)(CO)C(C)CC4C)CC3C)C2C)OC1C (stereo unspecified),"inconclusive: 17.8 µM [inhibitor, partial curve, poor fit]",
CS(=O)(=O)c1ccc2nc(NC(=O)C3CC(=O)N(c4ccccc4)C3)sc2c1 (stereo unspecified),"inconclusive: 11.2 µM [inhibitor, partial curve, poor fit]",

The listing continues.

SMILES	Potency	activity, negative = inhibition
CC[C@@H](C)[C@H](CNC)NC[C@@H](Cc1cccc2ccccc12)NCCc1cccc(C(F)(F)F)c1	inconclusive: 22.4 µM [inhibitor, single point]	
CC1=C/C(=N\OS(=O)(=O)c2ccccc2)C(C(C)C)=CC1=O	inconclusive: 28.2 µM [inhibitor, partial curve, poor fit]	
CC1Cc2ccccc2N1C(=O)CCS(=O)(=O)c1ccc2c(c1)NC(=O)CS2 (stereo unspecified)	inconclusive: 7.08 µM [inhibitor, partial curve, poor fit]	
O=C(/C=C/c1ccc([N+](=O)[O-])cc1)Nc1ncc([N+](=O)[O-])s1	inconclusive: 11.2 µM [inhibitor, partial curve, poor fit]	
COC(=O)c1ccccc1-c1ccc(/C=N/Nc2nc(N3CCCC3)nc(N3CCCC3)n2)o1	inconclusive: 22.4 µM [inhibitor, partial curve, poor fit]	
Cc1ccc(Cl)cc1N1CCN(C(=O)c2noc(C)c2[N+](=O)[O-])CC1	inconclusive: 25.1 µM [inhibitor, single point]	
CCOC1=C2[C@H](c3ccc(CC)cc3)N(S(=O)(=O)c3ccc(C)cc3)C[C@H]2C(C#N)(C#N)C(C#N)(C#N)C1	inconclusive: 35.5 µM [inhibitor, single point]	
COc1ccc(N2CCN(C3CCCCC3NS(=O)(=O)c3ccccc3)CC2)cc1 (stereo unspecified)	inconclusive: 35.5 µM [inhibitor, single point]	
COc1ccc(CCNC(=O)c2ccccc2NC(=O)c2ccco2)cc1OC	inconclusive: 15.8 µM [inhibitor, partial curve, poor fit]	
CCN(CC)C(=O)c1ccc(NC(=O)Nc2ccccc2F)cc1	inconclusive: 17.8 µM [inhibitor, single point]	
CN(Cc1cccc(-c2cccnc2)c1)C(=O)Oc1ccc([N+](=O)[O-])cc1	inconclusive: 35.5 µM [inhibitor, partial curve, poor fit]	
O=c1c2ccccc2nc(SCc2ccc([N+](=O)[O-])cc2)n1-c1ccccc1	inconclusive: 10 µM [inhibitor, partial curve, poor fit]	
C/C=C(/CCC1NCCc2c1[nH]c1ccccc21)[Si](C)(C)C (stereo unspecified)	inconclusive: 28.2 µM [inhibitor, single point]	
COc1ccc(C(C)=O)cc1COC(=O)CNC(=O)c1ccccc1F		inactive: -36.6%
O=C(OCC12CC3CC(CC(C3)C1)C2)c1ccc(NCc2cc(O)ccc2O)cc1	inconclusive: 17.8 µM [inhibitor, partial curve, poor fit]	
O=C(CCCc1cccs1)Nc1nc(-c2ccc(F)cc2)cs1	inconclusive: 14.1 µM [inhibitor, partial curve]	
O=C(OCc1cn([C@H]2CN(Cc3cccs3)[C@@H](c3ccc(Cl)cc3)C[C@@H]2O)nn1)c1ccccc1	inconclusive: 1.26 µM [inhibitor, full curve]	
O=S(=O)(Cc1ccccc1)c1cnc2ccccc2n1	inconclusive: 11.2 µM [inhibitor, partial curve, poor fit]	
